Data: patent US20040029208A1, “Assay method and kit for testing biological material for exposure to stress using biomarkers” (priority 2000, published 2004)
Values joined by “and” are separate entries in the source; they are usually repeats but may differ in a detail not shown here. Equal entries are not always repeated.

What was measured:
Test in all cases: TLC plant biomarker pattern after herbicide spraying (greenhouse)
Type in all cases: in vivo
Centauréa cýanus = system: Centauréa cýanus
Lólium perénne = system: Lólium perénne
Anagallis arvensis = system: Anagallis arvensis
Experimental: The experiments were performed in the green-house at the National Environmental Research Institute, Silkeborg, Denmark. All the seeds needed light to germinate, and were sown at the soil surface in individual 11 cm pots. The soil used during the experiments contained: (SM Growing Mould (Growing medium by special soil (sphagnum) added clay granulate), 0-30 mm; grade of turnover 55-75; added per m^3: 3 kg lime (white chalk), 1.5 kg dolit chalk, 40 kg clay granulate; Fertilizer added granulate: NO3-N: 55.0 g; NH4-N: 65.0 g; P: 106.6 g; K: 224.0 g; Mg: 22 g; Micro nutrients added in chelate form, Mo in uorganic form: B-Boron: 1 g; Cu-copper: 6 g; Mn-Manganese: 3 g; Zinc-Zn: 3 g: Fe-iron: 6 g; Mo- molybdenum: 1.4 g). […]
The two extracts (freshtfresh ethanol) were applicated immediately on a TLC plate (10 μl on both TLC-Plate types (see below) using cool air-drying. The 75% ethanolic extract was applicated 10 μl on Silica-gel TLC-plates and 5 μl on Cellulose TLC-plates (see below). The fresh/fresh ethanolic extractsare recommended to perform if fresh plant material are to be analysed (field-test). The freeze-dried or frozen plant material extraction Is recommended if the analysis are performed in the laboratory. […]

## O=C(O)CNCP(=O)(O)O [Glyphosate]
Centauréa cýanus; TLC 6 (lipids and terpens)
  Rf-value of plant biomarker: 0.10
Centauréa cýanus; TLC 7 (non-specific compounds)
  Rf-value of plant biomarker: 0.08

## Bromoxynil
Lólium perénne; TLC 1 (non-specific compounds)
  Rf-value of plant biomarker: 0.03
Lólium perénne; TLC 6 (lipids and terpens)
  Rf-value of plant biomarker: 0.56

## CCC(CC)Nc1c([N+](=O)[O-])cc(C)c(C)c1[N+](=O)[O-] [Pendimethalin]
Anagallis arvensis; TLC 1 (non-specific compounds)
  Rf-value of plant biomarker: 0.20 and 0.31
Anagallis arvensis; TLC 7 (non-specific compounds)
  Rf-value of plant biomarker: 0.32
Centauréa cýanus; TLC 2 (phenolic compounds)
  Rf-value of plant biomarker: 0.44
Lólium perénne; TLC 7 (non-specific compounds)
  Rf-value of plant biomarker: 0.02
Lólium perénne; TLC 4d (amino acids)
  Rf-value of plant biomarker: 0.14

## COC(=O)c1ccccc1S(=O)(=O)NC(=O)Nc1nc(C)nc(OC)n1 [Metsulfuron methyl]
Centauréa cýanus; TLC 2 (phenolic compounds)
  Rf-value of plant biomarker: 0.52 and 0.86
Centauréa cýanus; TLC 7 (non-specific compounds)
  Rf-value of plant biomarker: 0.42
